# Laboratory results reported in PubChem BioAssay AID1745850 (National Center for Advancing Translational Sciences (NCATS), 2022).
# In all, about 2,100 compounds went through this assay and about 260 (12%) were called active. Inconclusive means that the source gave no clear call. Such entries were picked first, then a sample of the others. Calls follow the shape of the dose curve; as a rule, active = well fitted cell-killing curve with a large enough effect; inconclusive = small, poorly fitted or top-dose-only effect, or effect the other way; inactive = flat fitted curve, though single readings scatter. A potency beside an inconclusive call is a rough fit, not a confirmed value.
# Assay: Viability Counterscreen for Confirmatory qHTS for Inhibitors of ATXN expression; also: nearly all actives have a fitted effect of over 50% in size
# Details: HEK-293 ATXN2-luc cells viability, CellTiter-Fluor, 24 h
# Procedure, shortened: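 Cells with an ATXN2-luciferase reporter were dosed in a dilution series for 24 h at 37 degrees C. Viability was read first with Gly-Phe-AFC at 25 uM final (fluorescence, ex 405/em 540), then SteadyGlo luminescence. Medium-only wells defined 100% inhibition.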
# Potency is read from the fitted curve at half-maximal effect.
row,Compound,Potency
1,N#C/C(=C(/O)COC(=O)CSc1ccc(Cl)cc1)c1nc2ccccc2[nH]1,"inconclusive: 25.1 µM [cytotoxic, partial curve]"
2,CN(c1ccccc1)S(=O)(=O)c1cccc(NC(=O)c2cc(=O)c3ccccc3o2)c1,"inconclusive: 35.5 µM [cytotoxic, single point]"
3,Cc1cccc2sc(NNC(=O)c3ccc(S(=O)(=O)N4CC(C)CC(C)C4)cc3)nc12 (stereo not given),active: 11.2 µM
4,CCCCOc1ccc(NC2=NC3(CCCC3)N=C(N)N2)cc1,inactive
5,CC1(C(=O)N/N=C/c2ccc([N+](=O)[O-])o2)CC1(Br)Br (stereo not given),"inconclusive: 28.2 µM [cytotoxic, partial curve, poor fit]"
6,COc1cc(CC(=O)Nc2nc(-c3ccc(F)c(F)c3)cs2)cc(OC)c1OC,"inconclusive: 20 µM [cytotoxic, partial curve]"
7,Cc1cccc(OCCCC(=O)Nc2nc3ccccc3[nH]2)c1,inactive
8,CCc1nc(N)nc(N)c1-c1ccc(N(C)Cc2ccccc2)c([N+](=O)[O-])c1,"inconclusive: 28.2 µM [cytotoxic, partial curve]"
9,CCN(CC)c1cc(C)c2cc(NC(=O)c3ccccc3OC)ccc2n1,"inconclusive: 25.1 µM [cytotoxic, partial curve, poor fit]"
10,CCOC(=O)/C=C/C(=O)Nc1ccc(Oc2ccccc2)cc1,inactive
11,CC(Sc1ccc(Cl)cc1)C(=O)NNC(=O)c1ccccc1O (stereo not given),inactive
12,OC(CN1CCCCC1)Cn1c2ccc(Cl)cc2c2cc(Cl)ccc21 (stereo not given),"inconclusive: 7.08 µM [cytotoxic, single point]"
13,COc1ccccc1C(=O)Nc1nc(-c2ccc(S(=O)(=O)N3CCOCC3)cc2)cs1,"inconclusive: 3.16 µM [cytotoxic, partial curve]"
14,CNc1ccc(Br)cc(C(=O)/C=C/c2ccc3c(c2)OCO3)c1=O,inactive
15,Cc1nc2ccc(NC(=O)c3cccc(S(=O)(=O)N(C)c4ccccc4)c3)cc2s1,active: 3.16 µM
16,CC(=O)c1cc(CN2CCC(C(=O)Nc3cccc(-c4cscn4)c3)CC2)cs1,"inconclusive: 39.8 µM [cytotoxic, single point]"
17,COc1cc(/C=N/Nc2snc(SC)c2C#N)cc(OC)c1OC,"inconclusive: 10 µM [cytotoxic, partial curve]"
18,CCC(C)(C)c1ccc(OCCCC[n+]2ccc(C)cc2)c(C(C)(C)CC)c1,inactive
19,O=C(c1ccc(C#Cc2ccccc2)o1)N1CCN(c2ccccn2)CC1,"inconclusive: 39.8 µM [cytotoxic, single point]"
20,CC(C)CC(N)c1csc(NC(=O)Nc2ccccc2C(C)(C)C)n1 (stereo not given),"inconclusive: 8.91 µM [cytotoxic, single point]"
21,CCN(Cc1ccccc1)S(=O)(=O)c1ccc(C(=O)Nc2nnc(C3CC3)o2)cc1,inactive
22,CCOC(=O)CSc1cccc2cccnc12,"inconclusive: 44.7 µM [cytotoxic, single point]"

# Retrieved by compound from the list above:
row,Compound,Potency
16,CC(=O)c1cc(CN2CCC(C(=O)Nc3cccc(-c4cscn4)c3)CC2)cs1,"inconclusive: 39.8 µM [cytotoxic, single point]"
22,CCOC(=O)CSc1cccc2cccnc12,"inconclusive: 44.7 µM [cytotoxic, single point]"
7,Cc1cccc(OCCCC(=O)Nc2nc3ccccc3[nH]2)c1,inactive
15,Cc1nc2ccc(NC(=O)c3cccc(S(=O)(=O)N(C)c4ccccc4)c3)cc2s1,active: 3.16 µM
4,CCCCOc1ccc(NC2=NC3(CCCC3)N=C(N)N2)cc1,inactive

# Next part.

row,Compound,Potency
1,Cn1c(/C=C/c2ccc(Cl)cc2Cl)c([N+](=O)[O-])c(=O)n(C)c1=O,active: 22.4 µM
2,C[C@H]1O[C@@H](O[C@H]2[C@@H](O)C[C@H](O[C@H]3[C@@H](O)C[C@H](O[C@H]4CC[C@@]5(C)[C@H](CC[C@@H]6[C@@H]5C[C@@H](O)[C@]5(C)[C@@H](C7=CC(=O)OC7)CC[C@]65O)C4)O[C@@H]3C)O[C@@H]2C)C[C@H](O)[C@@H]1O,"inconclusive: 0.251 µM [cytotoxic, full curve, poor fit]"
3,O=C(CNC(=O)c1cccc(Br)c1)N/N=C/c1cc(Br)cc(Br)c1O,inactive
4,O=C(NC(Nc1nc2ccc([N+](=O)[O-])cc2s1)(C(F)(F)F)C(F)(F)F)c1ccccc1,active: 2.24 µM
5,COc1ccccc1-c1ccc2c(c1)C(C)(Cc1cccc(F)c1)C(=O)N2 (stereo not given),inactive
6,Cc1ccnc(NC(=O)C2CCN(S(=O)(=O)c3c(C)c(C)cc(C)c3C)CC2)c1,"inconclusive: 39.8 µM [cytotoxic, single point]"
7,COc1ccc(C(C)=O)cc1CC1(C)C(=O)Nc2ccc(-c3cccc(C(F)(F)F)c3)cc21 (stereo not given),"inconclusive: 39.8 µM [cytotoxic, single point]"
8,CC(C)(C)c1ccc(OCCn2nc(C(=O)O)c3ccccc3c2=O)cc1,inactive
9,COc1cc(C(=O)NC(=S)NNC(=O)c2cnccn2)cc(OC)c1OC,"inconclusive: 20 µM [cytotoxic, partial curve]"
10,CN1C(=O)/C(=C/c2ccccc2F)Sc2ccc(C(=O)N3CCCC3)cc21,"inconclusive: 39.8 µM [cytotoxic, single point]"
11,CCOc1ccc(/C=N/NC(=O)C(O)c2ccccc2)c(O)c1 (stereo not given),inactive
12,O=C(CNC(=O)c1ccccc1O)N/N=C/c1cc(Br)ccc1OC(=O)/C=C/c1ccco1,inactive
13,Cc1cccc(N2CCN(C(=O)CNC(=O)Cc3ccccc3)CC2)c1C,inactive
14,Cc1cccc(NC(c2ccc(C)s2)c2ccc3ccc(C)nc3c2O)n1 (stereo not given),active: 25.1 µM
15,Cc1ccccc1NC(=O)Nc1nc(C(N)C2CCCCC2)cs1 (stereo not given),"inconclusive: 35.5 µM [cytotoxic, single point]"
16,CC(C)(C)c1nnc(N/N=C/c2ccccc2O)n(N)c1=O,"inconclusive: 4.47 µM [cytotoxic, partial curve]"
17,CC(N)c1csc(NC(=O)c2cc(C(C)(C)C)nn2Cc2ccccc2)n1 (stereo not given),"inconclusive: 6.31 µM [cytotoxic, single point]"
18,O=C(Nc1ccc(N2CCN(C(=O)c3ccco3)CC2)c(Cl)c1)c1c(F)c(F)c(F)c(F)c1F,"inconclusive: 39.8 µM [cytotoxic, single point]"
19,CCOc1ccc(C(CN2CCOCC2)C(C)=O)cc1OC (stereo not given),"inconclusive: 39.8 µM [cytotoxic, single point]"
20,COc1cc(OC)c2cc(C(=O)N/N=C/c3cccc(OC)c3O)[nH]c2c1,"inconclusive: 10 µM [cytotoxic, partial curve, poor fit]"
21,CCC(=O)NC(c1ccc(C)cc1)c1cc([N+](=O)[O-])c2cccnc2c1O (stereo not given),active: 22.4 µM
22,CCOC(=O)c1c(SCCN2CCCCC2)n(-c2ccccc2)c(=S)n(-c2ccccc2)c1=O,"inconclusive: 25.1 µM [cytotoxic, single point]"

row,Compound,Potency
1,N#C/C(=C\c1cccc([N+](=O)[O-])c1)C(=O)NCc1ccc(Cl)cc1,"inconclusive: 4.47 µM [cytotoxic, single point]"
2,COCC(=O)OC/C(O)=C(\C#N)c1nc2ccccc2[nH]1,"inconclusive: 3.16 µM [cytotoxic, partial curve]"
3,COc1ccc(CC(N)c2csc(NC(=O)c3cccc(OC(F)(F)F)c3)n2)cc1 (stereo not given),"inconclusive: 39.8 µM [cytotoxic, single point]"
4,Cc1ccc(C(=O)O)cc1N1C(=O)c2cccc3c([N+](=O)[O-])ccc(c23)C1=O,"inconclusive: 22.4 µM [rising, partial curve]"
5,CCc1ccc(OCC(=O)N/N=C(\C)c2ccc(O)cc2O)cc1,inactive
6,C=CCN=c1scc(-c2ccc3c(c2)NC(=O)CO3)n1/N=C(\C)c1ccccn1,"inconclusive: 31.6 µM [cytotoxic, partial curve, poor fit]"
7,C=CCc1cccc(/C=N/NC(=O)C[n+]2ccccc2)c1O,"inconclusive: 22.4 µM [cytotoxic, partial curve, poor fit]"
8,O=c1cnnc(N/N=C/c2ccccn2)[nH]1,"inconclusive: 3.55 µM [cytotoxic, full curve]"
9,CCOC(=O)/C(=C/c1ccc(N2CCC(c3ccccc3)=N2)cc1)C(C)=O,"inconclusive: 8.91 µM [rising, single point]"
10,O=C(CNC(=O)c1cccc(F)c1)N/N=C/c1cc(Br)ccc1OC(=O)/C=C/c1ccco1,"inconclusive: 12.6 µM [cytotoxic, partial curve, poor fit]"
11,Cc1ccc(NS(=O)(=O)c2cc3c4c(cccc4c2)C(=O)NC3=O)cc1C,"inconclusive: 3.16 µM [cytotoxic, partial curve, poor fit]"
12,COc1cc(/C=C/C(=O)c2ccc(C)c([N+](=O)[O-])c2)cc(OC)c1O,"inconclusive: 39.8 µM [cytotoxic, single point]"
13,NC(=Nc1nc(-c2ccccn2)cc2ccccc12)c1ccccn1,"inconclusive: 0.355 µM [cytotoxic, partial curve, poor fit]"
14,CC(=O)c1ccc(N2CCc3ccccc3C2)c([N+](=O)[O-])c1,inactive
15,CC(C)(C)c1cc(C(=O)N/N=C/c2ccc([N+](=O)[O-])s2)n[nH]1,"inconclusive: 15.8 µM [cytotoxic, partial curve, poor fit]"
16,CCCCCCn1c2c(c(=N)c3c1CCC3)CCC2,"inconclusive: 11.2 µM [cytotoxic, partial curve]"
17,COc1ccc(OC)c(/C=C/C(=O)N2C(=O)c3cccc(N)c3C2=O)c1,"inconclusive: 10 µM [rising, partial curve, poor fit]"
18,CC1(C(=O)NCc2cccc(C(F)(F)F)c2)CCN1Cc1ccc(-c2ccccc2)o1 (stereo not given),"inconclusive: 39.8 µM [cytotoxic, single point]"
19,Cc1ccc(NC(=O)COc2ccc(/C=C3/SC(=Nc4ccccc4)N(Cc4cccnc4)C3=O)cc2)cc1,active: 20 µM
20,Cc1ccc(N2CC(C(=O)Nc3nccs3)CC2=O)cc1Cl (stereo not given),"inconclusive: 20 µM [cytotoxic, partial curve]"
21,O=C(Nc1ccc(Cl)c(Cl)c1)c1cccc(S(=O)(=O)NCc2cccnc2)c1,active: 3.16 µM

# In a second layout: entries from further up
row	Compound	Potency
9	CCN(CC)c1cc(C)c2cc(NC(=O)c3ccccc3OC)ccc2n1	inconclusive: 25.1 µM [cytotoxic, partial curve, poor fit]
19	CCOc1ccc(C(CN2CCOCC2)C(C)=O)cc1OC (stereo not given)	inconclusive: 39.8 µM [cytotoxic, single point]
